Assay results published in patent EP1353939B1 (Sankt-Peterburgskaya Obschestvennaya Organizatsia …, priority 2001, dated 2004).
The star is where a group is joined. Cbz = O=C(OCc1ccccc1)*; OBn = c1ccc(CO*)cc1

Assay: general procedure: solution-phase peptide synthesis; N,N'-dicyclohexylcarbodiimide / N-oxybenzotriazol

Substance	step yield (late stage modification step) [%]	final HPLC purity (purification step, 220 nm) [%]	step yield (coupling step) [%]
H-Lys-Glu-Asp-Pro-OH	90	98.56	–
Cbz-K(Cbz)E(OBn)D(OBn)P-OBn	–	–	68
